These are yes or no findings as the source states them, for the method shown.
Target: GST-Nup116(348-458) F > A, mutant GLFG domain of yeast Nup116 (S. cerevisiae) (UniProt Q02630)
Assay: bead halo assay; GST-fused yeast FG- and GLFG-domains on glutathione polystyrene beads; AF488-DPRs in binding buffer; rim vs. background ratio, Nup116 F→A beads define the non-specific level; both purified

Chains of the proteins cited; added tags and fusions are not shown. Lines headed by an entry give the natural chain unless they say otherwise; changes in a name come on top.
UniProt Q02630: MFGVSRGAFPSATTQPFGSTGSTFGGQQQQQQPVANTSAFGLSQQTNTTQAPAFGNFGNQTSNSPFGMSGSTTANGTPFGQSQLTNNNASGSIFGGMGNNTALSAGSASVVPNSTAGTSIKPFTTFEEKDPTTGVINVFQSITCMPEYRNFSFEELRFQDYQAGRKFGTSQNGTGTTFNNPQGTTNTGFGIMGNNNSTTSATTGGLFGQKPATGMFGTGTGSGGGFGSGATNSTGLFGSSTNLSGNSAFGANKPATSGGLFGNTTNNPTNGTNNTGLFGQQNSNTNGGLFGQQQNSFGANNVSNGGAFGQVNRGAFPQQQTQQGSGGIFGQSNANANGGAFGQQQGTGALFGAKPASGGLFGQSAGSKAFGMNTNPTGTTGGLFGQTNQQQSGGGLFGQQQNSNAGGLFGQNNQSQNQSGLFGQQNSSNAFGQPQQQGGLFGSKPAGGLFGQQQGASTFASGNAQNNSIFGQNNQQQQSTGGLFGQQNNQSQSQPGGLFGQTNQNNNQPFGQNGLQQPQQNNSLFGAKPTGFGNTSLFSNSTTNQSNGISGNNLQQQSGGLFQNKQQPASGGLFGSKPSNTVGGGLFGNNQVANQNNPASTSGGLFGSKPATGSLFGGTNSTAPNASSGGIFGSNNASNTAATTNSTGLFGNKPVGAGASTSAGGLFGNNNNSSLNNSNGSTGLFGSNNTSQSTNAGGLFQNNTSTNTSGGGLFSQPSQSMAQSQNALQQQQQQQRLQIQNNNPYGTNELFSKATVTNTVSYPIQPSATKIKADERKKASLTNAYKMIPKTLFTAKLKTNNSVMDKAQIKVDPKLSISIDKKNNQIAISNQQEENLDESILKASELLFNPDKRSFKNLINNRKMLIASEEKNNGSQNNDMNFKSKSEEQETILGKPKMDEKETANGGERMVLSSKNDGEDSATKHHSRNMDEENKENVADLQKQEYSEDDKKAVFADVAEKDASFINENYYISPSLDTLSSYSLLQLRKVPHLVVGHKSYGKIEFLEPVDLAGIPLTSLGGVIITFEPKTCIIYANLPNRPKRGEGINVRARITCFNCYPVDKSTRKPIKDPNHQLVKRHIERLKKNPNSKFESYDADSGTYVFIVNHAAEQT

binding | Binder
no binding | PRPRPRPRPRPRPRPRPRPRKC (Alexa Fluor 488 C5-maleimide on the C-terminal cysteine) [AF488-labeled PR10]
no binding | GRGRGRGRGRGRGRGRGRGRKC (Alexa Fluor 488 C5-maleimide on the C-terminal cysteine) [AF488-labeled GR10]

Reference: article PMC7051184, “C9orf72 arginine-rich dipeptide repeat proteins disrupt karyopherin-mediated nuclear import” (eLife, 2020)
